The text below walks through data of publication PMC4405354.

The target in experiment [1] is T1, FLAG-MFN1 (mitofusin 1, wild type) (UniProt Q8R4Z9).
T1 sequence: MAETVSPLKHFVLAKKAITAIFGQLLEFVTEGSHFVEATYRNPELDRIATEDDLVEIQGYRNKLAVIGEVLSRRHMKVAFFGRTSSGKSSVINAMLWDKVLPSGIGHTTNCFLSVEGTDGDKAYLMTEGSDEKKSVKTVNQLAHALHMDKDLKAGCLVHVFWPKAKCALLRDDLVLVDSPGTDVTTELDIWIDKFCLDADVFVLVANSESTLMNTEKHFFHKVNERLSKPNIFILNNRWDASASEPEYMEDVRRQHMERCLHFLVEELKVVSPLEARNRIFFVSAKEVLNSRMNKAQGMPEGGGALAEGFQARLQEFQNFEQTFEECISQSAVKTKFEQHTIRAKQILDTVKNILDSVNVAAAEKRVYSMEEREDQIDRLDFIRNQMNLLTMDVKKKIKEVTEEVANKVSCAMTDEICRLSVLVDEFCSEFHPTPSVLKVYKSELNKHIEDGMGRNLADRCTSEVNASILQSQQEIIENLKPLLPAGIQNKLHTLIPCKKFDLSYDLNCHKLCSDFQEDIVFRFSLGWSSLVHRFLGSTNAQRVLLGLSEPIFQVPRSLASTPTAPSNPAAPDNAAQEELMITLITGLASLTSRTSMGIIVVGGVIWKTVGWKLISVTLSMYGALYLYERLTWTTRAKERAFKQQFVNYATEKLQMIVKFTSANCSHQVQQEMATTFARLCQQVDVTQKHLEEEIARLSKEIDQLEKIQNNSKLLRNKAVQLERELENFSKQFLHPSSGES
Nature of the experiment: co-IP; anti-FLAG immunoprecipitation from lysates of transfected Mfn1-/- or Mfn2-/- MEFs; lysis in CPBS (6 mM CHAPS in PBS pH 7.4); antibody 1:50, 14 hr, 4°C; protein G-coated magnetic beads; SDS-PAGE and immunoblot. (In general: A western blot detects proteins with antibodies after separation by electrophoresis.)

Another experiment concerns the target T2, FLAG-MFN2 (mitofusin 2) (UniProt Q8R500).
T2 sequence: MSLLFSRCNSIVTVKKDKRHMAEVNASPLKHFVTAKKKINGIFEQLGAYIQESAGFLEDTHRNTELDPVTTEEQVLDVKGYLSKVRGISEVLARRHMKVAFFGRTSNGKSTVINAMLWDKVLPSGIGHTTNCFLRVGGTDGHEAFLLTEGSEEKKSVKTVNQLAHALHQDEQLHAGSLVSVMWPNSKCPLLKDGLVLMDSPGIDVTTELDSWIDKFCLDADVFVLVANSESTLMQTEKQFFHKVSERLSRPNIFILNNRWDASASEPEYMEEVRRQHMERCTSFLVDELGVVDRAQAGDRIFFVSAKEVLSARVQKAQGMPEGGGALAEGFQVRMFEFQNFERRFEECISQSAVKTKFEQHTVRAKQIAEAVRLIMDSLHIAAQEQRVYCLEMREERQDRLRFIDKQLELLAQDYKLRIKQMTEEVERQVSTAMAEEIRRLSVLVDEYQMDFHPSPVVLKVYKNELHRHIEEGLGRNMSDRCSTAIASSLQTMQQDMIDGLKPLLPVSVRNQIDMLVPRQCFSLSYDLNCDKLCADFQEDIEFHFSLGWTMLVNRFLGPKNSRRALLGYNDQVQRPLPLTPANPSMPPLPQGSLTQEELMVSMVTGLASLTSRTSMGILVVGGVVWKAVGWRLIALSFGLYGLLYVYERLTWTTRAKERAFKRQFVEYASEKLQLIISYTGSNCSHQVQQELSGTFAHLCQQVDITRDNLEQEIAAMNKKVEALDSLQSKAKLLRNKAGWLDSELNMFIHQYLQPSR
The description is as above.

No constants are given. Whether binding was seen depends on the method and setting. Binding seen in cells or lysates may run through a third protein. For some assays here: Binding calls can cover weak binding; strength is not graded here. Where a sequence is shown, tags or fusion partners need not be part of it.

“extracellular-signal-regulated kinase (ERK) (mouse (endogenous in MEFs)) (enzyme)”: the binding result is recorded as “binds” in experiment [1] and “no binding” with FLAG-MFN2 (mitofusin 2).
